# Assays:
# Test in all cases: Cytotoxicity / antiproliferative activity, MTS test
# Format in all cases: cell-based
# U-251 = settings: Homo sapiens, 72-h incubation
# Excerpt: (§1) The human colon carcinoma cell line HCT 116 wild type (p53^+/+) and the human breast carcinoma cell line MCF-7 were obtained from ATCC. The human colon cancer cell line HCT 116, which has a p53 deletion (p53^-/-), was kindly provided by prof. M. Rusin from the Maria Sklodowska-Curie Memorial Cancer Centre and Institute of Oncology in Gliwice, Poland. The glioblastoma cell line U-251 was kindly provided by prof. G. Kramer-Marek from The Institute of Cancer Research in London, United Kingdom. The pancreatic cell line PANC-1 and the human chronic myelogenous leukemia cell line K562 were purchased from Sigma-Aldrich. The adherent cell lines were cultured in Dulbecco’s modified Eagle’s medium (DMEM) containing 12% heat-inactivated fetal bovine serum (all from Sigma-Aldrich) with a mix of two standard antibiotics: 1% v/v of penicillin and streptomycin (Gibco) in 75 cm^2 flasks (Nunc). The suspension cell line K562 was cultured in an RPMI-1640 medium (Sigma-Aldrich), which had been supplemented with 10% heat-inactivated foetal bovine serum and the antibiotics. All of these cell lines were grown under standard conditions at 37 °C in a 5% CO2 humidified atmosphere. Prior to beginning the experiments, all of the cell lines were subjected to routine mycoplasma testing with specific Mycoplasma primers using the PCR technique.
# (§2) The exponentially growing cells for all of the cell lines were seeded in 96-well plates (Nunc) at a density of 5000 cells/well and incubated at 37 °C for 24 h. The assay was performed following a 72-h incubation with the various concentrations of the compounds that were being tested. Then, 20 µL of CellTiter 96®AQueous One Solution-MTS (Promega) solution was added to each well (with 100 µL DMEM without phenol red) and incubated for 1 h at 37 °C. The optical densities of the samples were analyzed at 490 nm using a multi-plate reader (Synergy 4, BioTek). The results are expressed as the percentage of the control and were calculated as the inhibitory concentration (IC50) values using GraphPad Prism 7. Each individual compound was tested in triplicate in a single experiment with each experiment being repeated five times.
# MCF-7 = settings: Homo sapiens, MCF7, 72-h incubation
# Excerpt: as §1, §2
# HCT 116 p53-/- = settings: Homo sapiens, 72-h incubation
# Excerpt: as §1, §2
# K562 = settings: Homo sapiens, 72-h incubation
# Excerpt: as §1, §2
# PANC-1 = settings: Homo sapiens, 72-h incubation
# Excerpt: as §1, §2
# HCT 116 p53+/+ = settings: Homo sapiens, 72-h incubation
# Excerpt: as §1, §2
smiles,measurement,setting,value
"CNC(=O)c1ccccc1Sc1ccc2c(/C=C/c3ccccn3)n[nH]c2c1 [Axitinib, axitinib, reference compound]",IC50,U-251,> 30 µM
same,IC50,MCF-7,> 30 µM
same,IC50,HCT 116 p53-/-,> 30 µM
same,IC50,K562,0.1 ± 0.01 µM
same,IC50,PANC-1,> 30 µM
same,IC50,HCT 116 p53+/+,> 30 µM

# Reference: article PMC7139656, “The Landscape of the Anti-Kinase Activity of the IDH1 Inhibitors” (Cancers, 2020)
